Assay: general procedure: Fmoc solid-phase peptide synthesis; resin from Example 1, Step 4 (polymer, 0.7 meq/g loading); HATU and DIEA (instead of TBTU and HOBt)
Details: for crude mass: whole synthesis, scale 290 mg polymer (0.7 meq/g); for step yield: late stage modification step

Row | Substance | crude mass [mg] | step yield [%]
1 | (3S)-3-((2S)-2-[((2S)-2-[(2S)-2-Amino-4-methoxy-4-oxobutanoyl]aminopropanoyl)amino]-3-methylbutanoylamino)-4-oxo-7-phenylheptanoic acid | 71 | 
2 | (3S)-3-[((2S)-2-[(2S)-2-((2S)-3-Carboxy-2-[(3,5-dibromobenzoyl)amino]propanoylamino)propanoyl]amino-3-methylbutanoyl)amino]-4-oxo-7-phenylheptanoic acid | 83 | 
3 | (3S)-3-((2S)-2-[((2S)-2-[(2S)-2-(Acetylamino)-4-methoxy-4-oxobutanoyl]aminopropanoyl)amino]-3-methylbutanoylamino)-4-oxo-7-phenylheptanoic acid |  | 63
4 | (3S)-3-[((2S)-2-[(2S)-2-((2S)-3-Carboxy-2-[(3,5-dideuteriobenzoyl)amino]propanoylamino)propanoyl]amino-3-methylbutanoyl)amino]-4-oxo-7-phenylheptanoic acid |  | 100
5 | (3S)-3-((2S)-2-[((2S)-2-[(2S)-2-(Acetylamino)-3-carboxypropanoyl]aminopropanoyl)amino]-3-methylbutanoylamino)-7-(1-naphthyl)-4-oxoheptanoic acid | 83 | 
6 | (3S)-3-((2S)-2-[((2S)-2-[(2S)-2-(Acetylamino)-3-carboxypropanoyl]amino-4-carboxybutanoyl)amino]-3-methylbutanoylamino)-4-oxo-7-phenylheptanoic acid | 58 | 

From patent US6552168B1 (Merck Frosst Canada & Co., priority 1998, dated 2003)
